Measured values reported in publication PMC7659708, “Genetically encoded live-cell sensor for tyrosinated microtubules” (The Journal of Cell Biology, 2020).
These are yes or no findings as the source states them, for the method shown. Where no end group is shown, it is not given here. The star is where a group is joined. Biotin = O=C1N[C@H]2[C@H](CS[C@H]2CCCCC(=O)*)N1

Target: T1, biotin-TUBA1A 440-450 (human)
T1 construct: C-terminal tail of human alpha-tubulin TUBA1A, amino acids 440-450, without the terminal tyrosine (detyrosinated); source: synthetic peptide (Thermo Fisher Scientific)
T1 peptide: Biotin-VEGEGEEEGEE
Assay: SPR; steady-state binding assay, Biacore-T200; biotinylated peptides immobilized on a streptavidin (SA) sensor chip at 100-300 response units; A1aY1 titrated from 0.031 to 200 µM; 1x HBS-P+ (10 mM Hepes, 150 mM NaCl, 0.05% surfactant P20), 30 µl/min; 1:1 binding considered, one site total fit; both purified

B1: A1aY1 binder (designed binder)
chain: MATVKFKYKGEEKQVDISKILSVGRYGKLIHFLYDLGGGKAGMGMVSEKDAPKELLQMLEKQKK
notes: A1aY1, an SSO7D mutant selected from a combinatorial yeast display library; (His6, thrombin site, A1aY1); Protein used in the SPR steady-state titrations; The results say 'without any tags'; the methods describe the stored protein as 9.3 kD, which is the size with His6 and thrombin site, and tell of thrombin cleavage only for the NMR sample; also called tyrosination sensor; source: E. coli …
binding: no binding (tested: >60 µM)
